Results are given in words; binding and its absence hold for the method and conditions named. In cells and extracts the contact can be indirect. For some assays here: Binding can be weak; no strength is given.
Tests used:
[1] = biological target: AKT-HA (AKT-FL, wild-type AKT) (human); experiment: co-IP; exogenous co-IP of transfected proteins in HEK-293T cells; lysis buffer 150 mM NaCl, 150 mM Tris, 0.4% NP-40, pH 7.4; antibody 4-6 hrs at 4 °C, protein A magnetic beads 2 hrs at 4 °C; immunoblot; some experiments quantitative with UPP1-WT or UPP1-R94A co-overexpressed, one with SC79
[2] = biological target: PDK2; experiment: as above

binding [1]: no binding
binding [2]: binds
B1: UPP1-R94A (mutant UPP1) (enzyme, UniProt Q16831 1-310)
chain: MAATGANAEKAESHNDCPVRLLNPNIAKMKEDILYHFNLTTSRHNFPALFGDVKFVCVGGSPSRMKAFIRCVGAELGLDCPGRDYPNICAGTDAYAMYKVGPVLSVSHGMGIPSISIMLHELIKLLYYARCSNVTIIRIGTSGGIGLEPGTVVITEQAVDTCFKAEFEQIVLGKRVIRKTDLNKKLVQELLLCSAELSEFTTVVGNTMCTLDFYEGQGRLDGALCSYTEKDKQAYLEAAYAAGVRNIEMESSVFAAMCSACGLQAAVVCVTLLNRLEGDQISSPRNVLSEYQQRPQRLVSYFIKKKLSKA
